Results published in patent US20230151437A1, “USE OF PROTEIN ASSEMBLIES TO RECORD CELLULAR EVENTS” (President and Fellows of Harvard College, priority 2021, published 2023).
No constants are given. Whether binding was seen depends on the method and setting. Some binding calls cover weakened binding; strength is not graded here. Tags and fused reporters may be left off the sequences shown.

Tests used:
[1] = target: iPAK4 (fusion of the catalytic domain of the Pak4 kinase and the 38 amino acid iBox domain of its inhibitor Inka1); assay: Tet-ON induced eGFP-iPAK4 in HEK cells; confocal imaging of incorporation into iPAK4 assemblies
[2] = target: iPAK4 (fusion of the catalytic domain of the Pak4 kinase and the 38 amino acid iBox domain of its inhibitor Inka1); assay: PMA-induced cFos::eGFP-iPAK4 in neurons with HT dye timestamps; confocal imaging
[3] = target: iPAK4 (fusion of the catalytic domain of the Pak4 kinase and the 38 amino acid iBox domain of its inhibitor Inka1); assay: PMA-induced cFos::eGFP-iPAK4 in neurons; fluorescence imaging of incorporation into iPAK4 assemblies

- binding [1]: binds
- binding [2]: binds
- binding [3]: binds
B1: eGFP-iPAK4 (protein)
chain: MSKGEELFTGVVPILVELDGDVNGYKFSVSGEGEGDATYGKLTLKFICTTGKLPVPWPTLVTTLTYGVQCFSRYPDHMKRHDFFKSAMPEGYVQERTIFFKDDGNYKTRAEVKFEGDTLVNRIELKGIDFKEDGNILGHKLEYNYNSHNVYIMADKQKNGIKANFKTRHNIEDGGVQLADHYQQNTPIGDDPVLLPDNHYLSTQSALSKDPNEKRDHMVILEFVTAAGITHGMDELYKSGGSEAEDWTAALLNRGRSRQPLVLGDNCFADLVHNWMELPEEFPAAPAVPGPPGPRSPQREPQRVSHEQFRAALQLVVDPGDPRSYLDNFIKIGEGSTGIVCIATVRSSGKLVAVKKMDLRKQQRRELLFNEVVIMRDYQHENVVEMYNSYLVGDELWVVMEFLEGGALTDIVTHTRMNEEQIAAVCLAVLQALSVLHAQGVIHRDIKSDSILLTHDGRVKLSDFGFCAQVSKEVPRRKSLVGTPYWMAPELISRLPYGPEVDIWSLGIMVIEMVDGEPPYFNEPPLKAMKMIRDNLPPRLKNLHKVSPSLKGFLDRLLVRDPAQRATAAELLKHPFLAKAGPPASIVPLMRQNRTR
